# This is one part of the list. The main result of the screen is listed elsewhere. These columns were measured beside it and carry no call. Compounds called inactive in the main read-out are mostly missing here. Potencies come from curve fits of mixed quality, noted in brackets.
# Assay: IkB Signaling
# Settings: ABC-DLBCL IkBa-CBG/CBR dual luciferase ratio (green luciferase fused to IkBa over red control in OCI-Ly3 lymphoma cells), 4 h
# How it was run: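 Curves were fitted separately to fusion (green), unfused (red) and ratio luminescence, then classed by r2, magnitude and activity. Cells: OCI-Ly3, 4 h compound plus doxycycline at 37C; 10 uM MG-132 defined full response.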
# [1] = measured here: control luc red channel unless noted
structure (smiles),measurement,setting,value
O=c1c(N2CCc3ccccc3C2)csc2ccc(Cl)cc12,AC50,[1],"15.8 µM [falling, partial curve]"
CC(C)c1cnc2c(c1SCC(=O)N1CCCCC1)c(=O)n(C)c(=O)n2C,AC50,[1],"0.0398 µM [falling, full curve, poor fit]"
Cc1noc(C)c1C(=O)Nc1nnc(-c2ccccc2)s1,AC50,[1],"7.94 µM [falling, partial curve]"
O=S(=O)(c1ccc2nc(-c3ccco3)c(-c3ccco3)nc2c1)N1CCOCC1,AC50,[1],"39.8 µM [rising, single point] [measured here: IkB-luc green channel]"
CCc1ccc2c(c1)NC(c1ccc(C)cc1)=NC(c1cccs1)=N2,AC50,[1],"0.316 µM [rising, partial curve]"
CC(C)(C)OC(=O)N1CCC(c2c(C(=O)O)cnn2-c2ccc(Cl)cc2)CC1,AC50,[1],"7.94 µM [falling, partial curve]"
CCn1c(=O)sc2cc(NS(=O)(=O)c3ccc(C)cc3)ccc21,AC50,measured here: IkB-luc green channel,"25.1 µM [rising, partial curve, poor fit]"
same,AC50,measured here: control luc red channel,"2.51 µM [falling, partial curve]"
CCCN1C(C(=O)c2ccccc2)=C(OC(=O)c2ccc(OC)cc2)c2ccccc2S1(=O)=O,AC50,[1],"3.16 µM [falling, full curve]"
CN(Cc1ccc(F)cc1)S(=O)(=O)c1nnc(NC(=O)c2ccccc2Cl)s1,AC50,[1],"20 µM [falling, partial curve]"
Cn1nnnc1SCCCNCc1ccc(-c2ccc(F)c(Cl)c2)o1,AC50,[1],"0.2 µM [falling, full curve, poor fit]"
Cc1ccc(CNC(=O)C2CCCN(S(=O)(=O)c3cn(C)cn3)C2)cc1 (stereo not drawn),AC50,[1],"15.8 µM [falling, partial curve, poor fit]"
Cn1cnc2c(sc3nc(N4CCOCC4)c4c(c32)CC(C)(C)OC4)c1=O,AC50,[1],"0.501 µM [rising, partial curve]"
COc1cccc(/C=N/n2c(C)nc3ccccc32)c1OC,AC50,[1],"39.8 µM [falling, single point]"
Cc1cc(=O)n(CC(=O)NCc2ccc(OC(C)C)cc2)c2c1c(C)nn2-c1cccc(F)c1,AC50,[1],"0.126 µM [falling, full curve, poor fit]"
c1ccc(-c2cnc(CSc3ncnc4sccc34)o2)cc1,AC50,[1],"31.6 µM [falling, partial curve]"
O=C(COC(=O)c1cccc(NC(=O)c2ccco2)c1)c1ccc(Br)cc1,AC50,[1],"2.51 µM [falling, full curve]"
Cc1cc(C)cc(NS(=O)(=O)c2ccc(N3CCCCS3(=O)=O)cc2)c1,AC50,[1],"39.8 µM [falling, single point]"

# 2 entries drawn at random from those above:
structure (smiles),measurement,setting,value
Cn1cnc2c(sc3nc(N4CCOCC4)c4c(c32)CC(C)(C)OC4)c1=O,AC50,[1],"0.501 µM [rising, partial curve]"
CCn1c(=O)sc2cc(NS(=O)(=O)c3ccc(C)cc3)ccc21,AC50,measured here: IkB-luc green channel,"25.1 µM [rising, partial curve, poor fit]"
